{"source": "paper PMC6712033", "about": "“Proteasome subunit α1 overexpression preferentially drives canonical proteasome biogenesis and enhances stress tolerance in yeast” (Scientific Reports, 2019)", "binders": {"B1": {"name": "proteasome subunit α4 (protein, UniProt P40303 1-254)", "chain": "MSGYDRALSIFSPDGHIFQVEYALEAVKRGTCAVGVKGKNCVVLGCERRSTLKLQDTRITPSKVSKIDSHVVLSFSGLNADSRILIEKARVEAQSHRLTLEDPVTVEYLTRYVAGVQQRYTQSGGVRPFGVSTLIAGFDPRDDEPKLYQTEPSGIYSSWSAQTIGRNSKTVREFLEKNYDRKEPPATVEECVKLTVRSLLEVVQTGAKNIEITVVKPDSDIVALSSEEINQYVTQIEQEKQEQQEQDKKKKSNH"}}, "molecular_target": "T1, proteasome subunit β5-3xFLAG (S. cerevisiae) (UniProt P30656)", "T1 sequence": "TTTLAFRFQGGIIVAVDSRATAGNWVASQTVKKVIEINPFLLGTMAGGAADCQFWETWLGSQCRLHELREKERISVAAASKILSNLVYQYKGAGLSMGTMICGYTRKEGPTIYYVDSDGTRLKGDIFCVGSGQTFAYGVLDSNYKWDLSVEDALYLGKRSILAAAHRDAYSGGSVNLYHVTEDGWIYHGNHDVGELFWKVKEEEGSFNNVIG", "test": "affinity purification with mass spectrometry; CP purified by β5-3xFLAG on anti-FLAG M2 gel from mixed SILAC-labelled extracts of pba3Δ yeast (empty vector or α1 overexpressed); 500 mM NaCl washes; eluted with 3xFLAG peptide; native PAGE, 20S band excised, LC-MS/MS", "note": "Results are given in words; binding and its absence hold for the method and conditions named. In cells and extracts the contact can be indirect. These calls come from enrichment with a bait or labelling near it, and not all partners need be listed. Tags and fused reporters may be left off the sequences shown."}
{"binder": "B1", "values": [{"measurement": "binding", "result": "binds"}]}
